The target in the assay is Caveolin-1 (human (endogenous in iPSC-derived NPCs)) (UniProt Q03135). Kind of assay: co-IP.

Sequences of proteins named here, by UniProt entry; tags and fusion partners are left off.
UniProt Q03135: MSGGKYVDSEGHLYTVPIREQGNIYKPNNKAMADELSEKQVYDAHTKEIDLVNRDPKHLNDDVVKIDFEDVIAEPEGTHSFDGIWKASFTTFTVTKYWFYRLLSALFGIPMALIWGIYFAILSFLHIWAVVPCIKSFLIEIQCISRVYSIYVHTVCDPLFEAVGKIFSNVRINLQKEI
UniProt O00429: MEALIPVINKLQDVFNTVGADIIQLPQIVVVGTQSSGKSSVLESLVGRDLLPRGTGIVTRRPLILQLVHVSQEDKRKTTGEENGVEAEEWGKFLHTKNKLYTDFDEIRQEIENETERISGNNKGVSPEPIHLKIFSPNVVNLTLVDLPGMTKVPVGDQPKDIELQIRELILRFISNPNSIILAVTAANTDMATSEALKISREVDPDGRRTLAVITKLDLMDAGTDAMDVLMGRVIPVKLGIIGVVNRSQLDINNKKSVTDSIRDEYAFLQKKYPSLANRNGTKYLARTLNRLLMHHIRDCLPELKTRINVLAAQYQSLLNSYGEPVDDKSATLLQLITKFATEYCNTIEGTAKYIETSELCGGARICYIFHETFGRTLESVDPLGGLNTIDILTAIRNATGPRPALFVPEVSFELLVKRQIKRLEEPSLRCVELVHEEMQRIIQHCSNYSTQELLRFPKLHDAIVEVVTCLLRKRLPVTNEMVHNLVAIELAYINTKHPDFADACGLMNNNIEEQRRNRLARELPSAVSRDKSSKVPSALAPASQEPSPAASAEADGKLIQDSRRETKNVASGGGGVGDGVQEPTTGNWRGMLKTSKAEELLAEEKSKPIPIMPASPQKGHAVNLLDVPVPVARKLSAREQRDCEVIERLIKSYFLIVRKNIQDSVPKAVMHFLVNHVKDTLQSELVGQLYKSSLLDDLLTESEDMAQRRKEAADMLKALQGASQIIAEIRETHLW

No constants are given. Whether binding was seen depends on the method and setting. In cells and extracts the contact can be indirect. Some entries that bind do so weakly or less than the wild type.

Regarding “dynamin-related protein 1 (from UniProt O00429 1-736)”, the binding entry is “binds”.

For the origin of these results see article doi:10.1101/2023.09.23.558792.
